The values below come from PubChem BioAssay AID1508600 (Functional Genomics Laboratory (NCATS/FGL), 2020).

In all, about 53,000 sequences went through this assay and about 3,700 (7%) were called active.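 Rule for the calls: active = gene knockdowns whose robust z-score for IL-1 alpha signal is at least 2 or at most -2, so actives lie on both sides; inactive = the rest.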 The list shows a part of the results.

This test in a line: Components of the Cytosolic LPS Sensing Pathway: Gene Identification via Genome-wide siRNA Screen.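 Note: robust z of the log signal after scaling to non-targeting control siRNA wells of the plate.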 The conditions noted are these: RAW264.7 macrophages, IL-1a HTRF, actives lie on both sides, screened at 100 nM (by protocol), cells primed 5 h with Pam3CSK4 first. A digest of the protocol: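 Read-out: IL-1a HTRF on supernatant, divided by plate negative-control median ×100, log-transformed and converted to robust z-score. Cells were RAW264.7 given 100 nM siRNA, Pam3CSK4-primed 5 hours, then LipidA-transfected 24 hour.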
Regarding GGCCAUUAUGGACAUGAAUTT against Zcchc7, the z-score was inactive: -1.1.
In the case of GGACCUGGAGUAUAUGCUGTT against Mgat4f, the z-score was inactive: -0.611.
In the case of GGACAGAGUUUUCAUUUUGTT against Rptn it was inactive: -1.51; in that of AAAAUCGUCAGAUCAAUCATT against Olfr698, inactive: -0.104.
Take GGCCAUCCCACAGAUUUACTT against Slain2: the z-score was inactive: -1.64.
Take GGAGCUCUCAUCCUACUAUTT against Eif4ebp3: the z-score was inactive: -0.0855.
With GGUUUUCCGAGGUUUCAAGTT against Azgp1, the z-score was inactive: 0.812.
To CCUGGAUAGUCGAUCCACUTT against Mesp1 belongs inactive: -0.545; to CCUAUGAGGAUAUGUGGAUTT against Adm2, inactive: -1.66; to GGGAUACCUCUGAGUGACUTT against Tmem139, inactive: 0.112.
To GGAGUUACCUUUCGAUAGGTT against Exoc5 belongs inactive: 0.648; to GGGCAUAUUCACGAUCAAUTT against Fut2, inactive: 1.43.
To GGUGUGGGUUUAACUAUCUTT against Olfr686 belongs inactive: 1.28; to GGGUAUAAAUGCCAGUAAATT against Sh3pxd2a, inactive: 0.18; to GGGCCGUUUCCUGAAGAUCTT against Pura, inactive: -0.546.
GGUUUAUUUGAUGUCCACATT against Rab2b: the z-score was inactive: -0.927.
To CCCACCACUAUUUAUAUGATT against Dlg2 belongs inactive: -0.17.
To GGGCUUGAAGGAAUUGACUTT against Cyp4f14 belongs inactive: -0.0932; to GGAUUUCAUCUGGUACCUGTT against Ceacam19, inactive: -0.0176; to GGCUUUGGAAUGAGAGCUUTT against Dynlrb1, active: -2.07.
As to GGGUUACCGGAAUGUUAUCTT against Tgm2, the z-score was inactive: -0.0057.
Turning to GGAAAUGAAUGGAAAUAGUTT against Ino80c, the z-score was inactive: -0.192.
For GCCAGUAACGACAAAGACATT against Per3, the z-score is inactive: -1.55.
For the sequence GCCUGAAUAUUGCUAUCACTT against Gpr107, the z-score was active: 2.35.
To GGGAAUGUUCAUACAAUAGTT against Tdp1 belongs inactive: 0.664.
In the case of GGAGAAACGAAACAAGAGUTT against Fkbp11 it was inactive: 1.07; in that of GCAUUGAGGAACGACUCACTT against Ints10, inactive: -0.0988.
For GCCAGAAUCUGUUGUGAACTT against Gfpt1, the z-score was inactive: 0.0747.
In the case of GGUCUUUACAGUCCUCUACTT against Olfr71 it was inactive: -0.772; in that of GGCCCAGAAAUGAUAUGGATT against Etd, inactive: 0.0627; in that of CCGAGUUUGUGUCACCACUTT against Krtcap2, inactive: 0.17.
Regarding UCAGAAUUCGAAAACUGGATT against Olfr1297, the z-score is inactive: -0.315.
To GGAUAAUGGGAUGAGUCCUTT against Kcnq1 belongs inactive: -1.36; to GGACAGCAGUAAAUAUACUTT against Coq3, inactive: 0.423; to GGAAUGCUUAAAGCUUUAATT against Clasp2, inactive: 0.353.
In the case of GGUCUUUGUAUUUGAUGUUTT against Ctbs it was inactive: -1.48; in that of GGAGAGAAUGGACCAUCUCTT against Rnase10, inactive: -1.16; in that of CCCAGGACCAUUGUUUGCATT against Olfr745, inactive: -0.719.
GGUCAAAGAAGGAAAACACTT against Foxn1: the z-score was inactive: -0.24.
Turning to GGCCAUUUUCAACAAGAACTT against Cybc1, the z-score was inactive: -0.862.
Take GGUUUCCCUUUGUAUCAUGTT against Olfr1451: the z-score is inactive: 0.357.
Consider GGGUGAAAGUUCAAGGUCUTT against Prss35, for which the z-score is inactive: 1.01.
To GGGCAGAUGGAAGAGAUCATT against Onecut1 belongs inactive: -1.4.
Regarding GGAGCAUCAGACAUUAGACTT against Pdcd2, the z-score was inactive: 1.35.
To GGACAAGAAGCAGGACAUCTT against Golga4 belongs inactive: 0.128; to GCGAAGUGAAGACAUUGUATT against Calm2, inactive: 0.511.
In the case of GGACUAGAAAUUAGUACCATT against Klf15 it was inactive: 0.928; in that of GCCUUCGGAAAACGAGAAATT against Atpif1, inactive: -0.0239; in that of GGAAAGCAGGACAAAAGGCTT against Mettl18, inactive: 0.346.
For the sequence CCUAAAAGUGCCUUACUAATT against Ftdc2, the z-score was inactive: 0.679.
In the case of GGUAUAAUCAAAGGAUAUCTT against Abraxas2 it was inactive: 0.524; in that of CCAUGGUACUAAUGUAAAUTT against Eef1e1, inactive: 0.797; in that of GGCUGAACUAAACUCCACCTT against Eapp, inactive: 0.057.
To GGGUUUGGACUGAUAUACUTT against Vrk2 belongs inactive: -0.465; to GGCAAUUCACUGUGAGUAATT against Mettl21a, active: -2.18.
Turning to CCCAGUUCUGUCCUACUUATT against Efcab6, the z-score was active: -2.79.
In the case of GGCUUUAAGAUCGAUACUATT against Cdc73, the z-score is inactive: -1.44.
To GGCCUGGAUUCCUUAACAATT against Lgi1 belongs active: -3.23; to GCCCAUCUUAGCAUUCUCUTT against Aldh4a1, inactive: -1.91; to GGUUAUCCACAUCUUCUCUTT against Mutyh, inactive: 0.334.
In the case of GCCUUUGAGUUUUAAGCCATT against Cobl it was inactive: -1.91.
With GGAGAAAAUUGCCUAUCUGTT against Tuft1, the z-score is inactive: 0.363.
In the case of GCUCAUGACUUUUAGCGGCTT against Mif it was inactive: 0.325; in that of GGCACUCAAUGGUGAGCAATT against Sipa1, active: 2.03.
Regarding GGAGUCAGUCCUUAAGCCUTT against Trim30a, the z-score was inactive: -0.0793.
Regarding GGCAUUGCUGGACUUUGAATT against Mvp, the z-score is inactive: -1.71.
Turning to GGAGAUCACAGAAAAGUAUTT against Pex19, the z-score was inactive: -0.0745.
To GCUAAAGAAAAGUGGAGACTT against Pbdc1 belongs inactive: 0.165; to GGAAGAACAAAAAACCAUGTT against Sf3b2, active: -2.14.
In the case of GGGCUAAGGCAAAAACUGATT against Ankrd34a, the z-score is inactive: -1.94.
Turning to GGCCCACCGAGAGAAACUATT against Cpsf1, the z-score was inactive: -0.0828.
Take GGAAAGUGAGGACAAAUAUTT against Cst8: the z-score was inactive: 0.808.
To CGUGGAACAUAAGAAUGGATT against Gapdhs belongs inactive: 0.269; to GCUCAGACAUGUUCUUACCTT against Myl6b, inactive: 0.172; to GGAAUAGAACGAAUUUCUGTT against Lsm11, inactive: 0.64.
GGUUAUUACACUCUACAAATT against Ceacam11: the z-score was inactive: 1.05.
To GCUCAGCAUAUUUGUACAUTT against Thbd belongs inactive: 0.643.
To GCUGAUCAACUACUUGAAUTT against Srek1 belongs inactive: 0.642; to CGACAGUGUUAGCAUUAAATT against Pros1, inactive: -0.901; to GGAGGUGGACCAAAAUGUCTT against Prss42, inactive: -1.17.
In the case of GGUACCGGAAAGGAAGUGUTT against Grm1 it was inactive: -0.467; in that of GCCUUUCUACUUAUUACCATT against Map3k7, inactive: -0.97; in that of GCCCAGCUAACUUCCACCUTT against Mmp10, inactive: -1.32.
GGGCUUGUAGAUGUGCGUATT against Hic2: the z-score was active: 3.32.
As to GGCUGAACAGCACCUCAUGTT against Trim54, the z-score is inactive: -0.313.
In the case of GGCAUGUUCUAUUUUUUGATT against Yod1 it was inactive: -0.148; in that of CCAUGCCAUGAGCAUCCAUTT against Bbs2, inactive: 0.484; in that of CCUCUUCGUUAAUUGGACATT against Fbxw2, inactive: -0.136.
As to GGAUGCGUUCUAUGUUGCGTT against Odc1, the z-score was inactive: 0.377.
For CCCGCACUCUUAGCAAUUATT against Gtpbp10, the z-score is inactive: -0.0268.
As for GCUAUCCCUUUAUGUAACATT against Prl7b1, the z-score is inactive: -0.224.
To CCUGGGCCUUAACAAGAAGTT against Upf1 belongs inactive: -1.32; to GGAGAUUUGCCGUAUGGAUTT against Wwox, inactive: -0.109; to GGUCUGAGUUUUAAACAGUTT against Gmfb, inactive: 1.13.
Take GGCCUGAAGAAGAUGCAGGTT against Rpl29: the z-score is inactive: 0.119.
As for GCAAUAGAAUCACAUAGGATT against Glyctk, the z-score is inactive: 1.35.
To CCCUAUGAUUCCGACAACCTT against Elmod1 belongs inactive: 1.8; to GCGCAGGUUCAAUGUGGAUTT against Prodh, inactive: 1.72.
In the case of GGCAAUGGACGCAUCACCUTT against Fn1 it was inactive: 0.505; in that of GCCAAUAAGCGGAAAAGCATT against Zfp609, inactive: -1.56.
CGGAUAGCUUACUAAUCUUTT against Gas7: the z-score is inactive: -1.58.
GGAUUUCAACGUGGCAGUUTT against Prss23: the z-score was inactive: -0.0724.
In the case of CCUGGCAAGGUUACGAAGUTT against Gsta3 it was inactive: 1.12.
In the case of GGUUAUCAGUUGCAUUGUUTT against Gpr37l1, the z-score was inactive: 0.809.
In the case of CGCAGAGUUCUAGUAACUCTT against Tcfl5 it was inactive: -0.751; in that of GCCUUUAAUCAACCCAAGATT against Scd1, inactive: -0.728; in that of GCGGUUUUUUUGGAAGCCATT against Ehf, inactive: -0.427.
